# At least one compound was matched to its structure with a doubt left.
# System: telomeric G-quadruplex DNA sequence d[AG3(T2AG3)3] (SEQ ID NO: 1)
# Assay: CD titration of compounds into human telomeric G-quadruplex DNA (induced CD)
# Type: binding
# Details: G-Quadruplex Affinity
# Description: The oligonucleotides d[AG3(T2AG3)3] (SEQ ID NO: 1), d[AG3TG4AG3TG4A] (SEQ ID NO: 2), d[G4(T4G4)3] (SEQ ID NO: 3), d[(T2G4)4] (SEQ ID NO: 4), d[(GC)7] (SEQ ID NO: 5), d[[…]] (SEQ ID NO: 6), d[G2T2G2TGTG2T2G2] (SEQ ID NO: 7), d[[…]] (SEQ ID NO: 8), d[[…]] (SEQ ID NO: 9), d[[…]] (SEQ ID NO: 10), d[[…]] (SEQ ID NO: 11), d[TTAGGGT] (SEQ ID NO: 12), and d[TGGGGT] (SEQ ID NO: 13) were purchased with HPLC purification from Midland Certified Reagent Company (The Midland Certified Reagent Company, Inc., Midland, Tex., USA). The concentration of each DNA sample was determined spectrophotometrically at 260 nm using the nearest neighbor extinction coefficient.
# Stock solutions of individual dicationic polyaryl compounds were prepared in double distilled water and diluted to working concentrations immediately before use with buffer. […] Absorbance spectra were obtained on a Varian Cary 300 BIO UV-visible spectrophotometer (Varian, Inc., Palo Alto, Calif., United States of America) in a quartz cell with a 1 cm pathlength. CD spectra were recorded using a Jasco J-810 spectrapolarimeter (Jasco, Inc., Easton, Md., United States of America) in a 1-cm cell using an instrument scanning speed of 50 nm/min with a response time of 1 s. […]
# When an achiral ligand binds tightly to a chiral host, such as DNA, a CD signal is induced in the wavelength region corresponding to the absorbance of the ligand. […]
smiles,measurement,value
"N=C(N)c1ccc(-c2ccc(-c3ccc(C(=N)N)cc3)o2)cc1 [furamidine, reference compound]",Induced CD (exciton),−
same,Induced CD (no exciton),−
